Source: publication PMC12081750
These are yes or no findings as the source states them, for the method shown. In cells and extracts the contact can be indirect. Some binding calls cover weakened binding; strength is not graded here.

Chains of the proteins cited; added tags and fusions are not shown. Residues count along the entry.
UniProt P40227: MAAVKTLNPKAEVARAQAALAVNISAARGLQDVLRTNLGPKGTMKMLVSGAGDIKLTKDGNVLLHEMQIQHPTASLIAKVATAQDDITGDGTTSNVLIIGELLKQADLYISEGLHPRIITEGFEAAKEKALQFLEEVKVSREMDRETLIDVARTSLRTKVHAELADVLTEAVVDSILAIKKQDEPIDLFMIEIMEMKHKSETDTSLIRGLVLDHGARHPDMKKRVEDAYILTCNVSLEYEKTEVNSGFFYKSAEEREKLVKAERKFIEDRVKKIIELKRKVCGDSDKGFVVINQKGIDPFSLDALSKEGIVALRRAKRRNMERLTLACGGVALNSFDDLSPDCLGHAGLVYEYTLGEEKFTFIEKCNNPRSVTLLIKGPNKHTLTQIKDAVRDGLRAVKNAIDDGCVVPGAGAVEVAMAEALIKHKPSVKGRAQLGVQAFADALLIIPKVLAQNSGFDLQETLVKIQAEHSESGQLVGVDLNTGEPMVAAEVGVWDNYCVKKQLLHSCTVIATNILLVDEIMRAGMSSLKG
UniProt P13501, residues 24-91: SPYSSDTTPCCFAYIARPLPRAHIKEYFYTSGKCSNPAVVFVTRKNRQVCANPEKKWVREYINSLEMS
UniProt P09341, residues 35-107: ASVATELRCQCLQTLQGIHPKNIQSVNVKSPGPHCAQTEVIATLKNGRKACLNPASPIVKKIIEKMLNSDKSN
UniProt P78556, residues 27-96: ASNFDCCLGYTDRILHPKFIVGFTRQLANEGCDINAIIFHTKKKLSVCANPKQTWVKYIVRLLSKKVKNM
UniProt P19876, residues 35-107: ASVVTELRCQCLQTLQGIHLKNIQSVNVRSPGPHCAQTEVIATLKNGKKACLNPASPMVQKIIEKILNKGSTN

Experiments:
[1] = biological target: CCT6A, subunit of the T-complex protein Ring Complex (TRiC), endogenous (human (endogenous in AsPC-1)) (UniProt P40227); test: co-IP; endogenous co-IP from PDAC-derived exosomes (AsPC-1-Exo in Fig. 6B), specific antibody or control IgG with A/G agarose beads overnight at 4 °C, western blotting
[2] = biological target: CCT6A, subunit of the T-complex protein Ring Complex (TRiC), endogenous (human (endogenous in AsPC-1)) (UniProt P40227); test: co-IP; endogenous co-IP from AsPC-1 cell lysate (1% NP-40, 20 mmol/L Tris-HCl pH 7.4, 5 mmol/L sodium pyrophosphate), specific antibody or control IgG with A/G agarose beads overnight at 4 °C, western blotting
[3] = biological target: CCT6A, protein of the GST pulldown in vitro (UniProt P40227); test: pull-down; GST pulldown in vitro: purified GST-tagged fusion protein from E. coli incubated with the target protein in binding buffer (Tris-HCl, NaCl, protease inhibitors) at 4 °C for 2-4 h, eluted with glutathione; western blotting and CBB staining; which partner carried GST and where the other came from is not stated

binding [1]	binding [2]	binding [3]	Substance
		binds	CCL5, protein of the GST pulldown in vitro (from UniProt P13501 24-91)
binds	binds		CCL5, endogenous (from UniProt P13501 24-91)
		binds	CXCL1, protein of the GST pulldown in vitro (from UniProt P09341 35-107)

The next lines start with the substance.

Substance	binding [1]	binding [2]	binding [3]
CCL20, endogenous (from UniProt P78556 27-96)	binds	binds	
CXCL1, endogenous (from UniProt P09341 35-107)	binds	binds	
CCL20, protein of the GST pulldown in vitro (from UniProt P78556 27-96)			binds
CXCL3, protein of the GST pulldown in vitro (from UniProt P19876 35-107)			binds
CXCL3, endogenous (from UniProt P19876 35-107)	binds	binds	
